Values from PubChem BioAssay AID504808 (Drosophila RNAi Screening Center, 2011)
Test: 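Chromatin factors that keep E2F targets switched off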 (primary screen). Cells: Drosophila S2 cells. Reagents: long dsRNA against Drosophila genes. Detection: 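Firefly luciferase driven by E2F sites, normalised to Renilla luciferase on the same minimal promoter, measured by plate reader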. Reading the numbers: E2F firefly: higher = more E2F reporter activity; Renilla normaliser: higher = more normaliser reporter signal. Hit rule: 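Called active if the normalised E2F reporter went up by over 50%; the cutoff is arbitrary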.
The screen tested about 21,000 reagents; shown is a random part of those that have a named target and a result. Of all reagents, 18 (0.084%) got an active call. 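Raw counts without plate normalisation, one of two replicates; the ratio scores behind the calls were not deposited.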 The numbers tell different reagents against one gene apart. Reagent sequences are not shown. Not stated in the record: the amount of reagent, the time to read-out.

Gfat1 (Glutamine:fructose-6-phosphate aminotransferase 1) | E2F firefly, rep 1: 1.18e5; Renilla normaliser, rep 1: 6629; Outcome: inactive
CG4297 | E2F firefly, rep 1: 1.90e5; Renilla normaliser, rep 1: 6176; Outcome: inactive
Nipped-B | E2F firefly, rep 1: 1.07e5; Renilla normaliser, rep 1: 4081; Outcome: inactive
Shal (Shaker cognate l) #1 | E2F firefly, rep 1: 92432; Renilla normaliser, rep 1: 3663; Outcome: inactive
Shal (Shaker cognate l) #2 | E2F firefly, rep 1: 1.49e5; Renilla normaliser, rep 1: 7611; Outcome: inactive

Single entries from the entries so far.
Under “Outcome”, CG4297 has inactive
Nipped-B, Outcome: inactive

The listing continues.
CG10674 | E2F firefly, rep 1: 93095; Renilla normaliser, rep 1: 3987; Outcome: inactive
CG14302 | E2F firefly, rep 1: 1.37e5; Renilla normaliser, rep 1: 6748; Outcome: inactive
CG5946 | E2F firefly, rep 1: 1.08e5; Renilla normaliser, rep 1: 3601; Outcome: inactive
RpL24-like (Ribosomal protein L24-like) | E2F firefly, rep 1: 1.16e5; Renilla normaliser, rep 1: 7422; Outcome: inactive
CG17544 | E2F firefly, rep 1: 84698; Renilla normaliser, rep 1: 3234; Outcome: inactive
Aplip1 (APPL-interacting protein 1) #1 | E2F firefly, rep 1: 1.52e5; Renilla normaliser, rep 1: 1996; Outcome: inactive
Aplip1 (APPL-interacting protein 1) #2 | E2F firefly, rep 1: 98694; Renilla normaliser, rep 1: 4233; Outcome: inactive
